According to article PMC4342579, “A new cytoplasmic interaction between junctin and ryanodine receptor Ca^2+ release channels” (Journal of Cell Science, 2015):
No constants are given. Whether binding was seen depends on the method and setting.

Chains of the proteins cited; added tags and fusions are not shown. Lines headed by an entry give the natural chain unless they say otherwise; changes in a name come on top.
UniProt P11716: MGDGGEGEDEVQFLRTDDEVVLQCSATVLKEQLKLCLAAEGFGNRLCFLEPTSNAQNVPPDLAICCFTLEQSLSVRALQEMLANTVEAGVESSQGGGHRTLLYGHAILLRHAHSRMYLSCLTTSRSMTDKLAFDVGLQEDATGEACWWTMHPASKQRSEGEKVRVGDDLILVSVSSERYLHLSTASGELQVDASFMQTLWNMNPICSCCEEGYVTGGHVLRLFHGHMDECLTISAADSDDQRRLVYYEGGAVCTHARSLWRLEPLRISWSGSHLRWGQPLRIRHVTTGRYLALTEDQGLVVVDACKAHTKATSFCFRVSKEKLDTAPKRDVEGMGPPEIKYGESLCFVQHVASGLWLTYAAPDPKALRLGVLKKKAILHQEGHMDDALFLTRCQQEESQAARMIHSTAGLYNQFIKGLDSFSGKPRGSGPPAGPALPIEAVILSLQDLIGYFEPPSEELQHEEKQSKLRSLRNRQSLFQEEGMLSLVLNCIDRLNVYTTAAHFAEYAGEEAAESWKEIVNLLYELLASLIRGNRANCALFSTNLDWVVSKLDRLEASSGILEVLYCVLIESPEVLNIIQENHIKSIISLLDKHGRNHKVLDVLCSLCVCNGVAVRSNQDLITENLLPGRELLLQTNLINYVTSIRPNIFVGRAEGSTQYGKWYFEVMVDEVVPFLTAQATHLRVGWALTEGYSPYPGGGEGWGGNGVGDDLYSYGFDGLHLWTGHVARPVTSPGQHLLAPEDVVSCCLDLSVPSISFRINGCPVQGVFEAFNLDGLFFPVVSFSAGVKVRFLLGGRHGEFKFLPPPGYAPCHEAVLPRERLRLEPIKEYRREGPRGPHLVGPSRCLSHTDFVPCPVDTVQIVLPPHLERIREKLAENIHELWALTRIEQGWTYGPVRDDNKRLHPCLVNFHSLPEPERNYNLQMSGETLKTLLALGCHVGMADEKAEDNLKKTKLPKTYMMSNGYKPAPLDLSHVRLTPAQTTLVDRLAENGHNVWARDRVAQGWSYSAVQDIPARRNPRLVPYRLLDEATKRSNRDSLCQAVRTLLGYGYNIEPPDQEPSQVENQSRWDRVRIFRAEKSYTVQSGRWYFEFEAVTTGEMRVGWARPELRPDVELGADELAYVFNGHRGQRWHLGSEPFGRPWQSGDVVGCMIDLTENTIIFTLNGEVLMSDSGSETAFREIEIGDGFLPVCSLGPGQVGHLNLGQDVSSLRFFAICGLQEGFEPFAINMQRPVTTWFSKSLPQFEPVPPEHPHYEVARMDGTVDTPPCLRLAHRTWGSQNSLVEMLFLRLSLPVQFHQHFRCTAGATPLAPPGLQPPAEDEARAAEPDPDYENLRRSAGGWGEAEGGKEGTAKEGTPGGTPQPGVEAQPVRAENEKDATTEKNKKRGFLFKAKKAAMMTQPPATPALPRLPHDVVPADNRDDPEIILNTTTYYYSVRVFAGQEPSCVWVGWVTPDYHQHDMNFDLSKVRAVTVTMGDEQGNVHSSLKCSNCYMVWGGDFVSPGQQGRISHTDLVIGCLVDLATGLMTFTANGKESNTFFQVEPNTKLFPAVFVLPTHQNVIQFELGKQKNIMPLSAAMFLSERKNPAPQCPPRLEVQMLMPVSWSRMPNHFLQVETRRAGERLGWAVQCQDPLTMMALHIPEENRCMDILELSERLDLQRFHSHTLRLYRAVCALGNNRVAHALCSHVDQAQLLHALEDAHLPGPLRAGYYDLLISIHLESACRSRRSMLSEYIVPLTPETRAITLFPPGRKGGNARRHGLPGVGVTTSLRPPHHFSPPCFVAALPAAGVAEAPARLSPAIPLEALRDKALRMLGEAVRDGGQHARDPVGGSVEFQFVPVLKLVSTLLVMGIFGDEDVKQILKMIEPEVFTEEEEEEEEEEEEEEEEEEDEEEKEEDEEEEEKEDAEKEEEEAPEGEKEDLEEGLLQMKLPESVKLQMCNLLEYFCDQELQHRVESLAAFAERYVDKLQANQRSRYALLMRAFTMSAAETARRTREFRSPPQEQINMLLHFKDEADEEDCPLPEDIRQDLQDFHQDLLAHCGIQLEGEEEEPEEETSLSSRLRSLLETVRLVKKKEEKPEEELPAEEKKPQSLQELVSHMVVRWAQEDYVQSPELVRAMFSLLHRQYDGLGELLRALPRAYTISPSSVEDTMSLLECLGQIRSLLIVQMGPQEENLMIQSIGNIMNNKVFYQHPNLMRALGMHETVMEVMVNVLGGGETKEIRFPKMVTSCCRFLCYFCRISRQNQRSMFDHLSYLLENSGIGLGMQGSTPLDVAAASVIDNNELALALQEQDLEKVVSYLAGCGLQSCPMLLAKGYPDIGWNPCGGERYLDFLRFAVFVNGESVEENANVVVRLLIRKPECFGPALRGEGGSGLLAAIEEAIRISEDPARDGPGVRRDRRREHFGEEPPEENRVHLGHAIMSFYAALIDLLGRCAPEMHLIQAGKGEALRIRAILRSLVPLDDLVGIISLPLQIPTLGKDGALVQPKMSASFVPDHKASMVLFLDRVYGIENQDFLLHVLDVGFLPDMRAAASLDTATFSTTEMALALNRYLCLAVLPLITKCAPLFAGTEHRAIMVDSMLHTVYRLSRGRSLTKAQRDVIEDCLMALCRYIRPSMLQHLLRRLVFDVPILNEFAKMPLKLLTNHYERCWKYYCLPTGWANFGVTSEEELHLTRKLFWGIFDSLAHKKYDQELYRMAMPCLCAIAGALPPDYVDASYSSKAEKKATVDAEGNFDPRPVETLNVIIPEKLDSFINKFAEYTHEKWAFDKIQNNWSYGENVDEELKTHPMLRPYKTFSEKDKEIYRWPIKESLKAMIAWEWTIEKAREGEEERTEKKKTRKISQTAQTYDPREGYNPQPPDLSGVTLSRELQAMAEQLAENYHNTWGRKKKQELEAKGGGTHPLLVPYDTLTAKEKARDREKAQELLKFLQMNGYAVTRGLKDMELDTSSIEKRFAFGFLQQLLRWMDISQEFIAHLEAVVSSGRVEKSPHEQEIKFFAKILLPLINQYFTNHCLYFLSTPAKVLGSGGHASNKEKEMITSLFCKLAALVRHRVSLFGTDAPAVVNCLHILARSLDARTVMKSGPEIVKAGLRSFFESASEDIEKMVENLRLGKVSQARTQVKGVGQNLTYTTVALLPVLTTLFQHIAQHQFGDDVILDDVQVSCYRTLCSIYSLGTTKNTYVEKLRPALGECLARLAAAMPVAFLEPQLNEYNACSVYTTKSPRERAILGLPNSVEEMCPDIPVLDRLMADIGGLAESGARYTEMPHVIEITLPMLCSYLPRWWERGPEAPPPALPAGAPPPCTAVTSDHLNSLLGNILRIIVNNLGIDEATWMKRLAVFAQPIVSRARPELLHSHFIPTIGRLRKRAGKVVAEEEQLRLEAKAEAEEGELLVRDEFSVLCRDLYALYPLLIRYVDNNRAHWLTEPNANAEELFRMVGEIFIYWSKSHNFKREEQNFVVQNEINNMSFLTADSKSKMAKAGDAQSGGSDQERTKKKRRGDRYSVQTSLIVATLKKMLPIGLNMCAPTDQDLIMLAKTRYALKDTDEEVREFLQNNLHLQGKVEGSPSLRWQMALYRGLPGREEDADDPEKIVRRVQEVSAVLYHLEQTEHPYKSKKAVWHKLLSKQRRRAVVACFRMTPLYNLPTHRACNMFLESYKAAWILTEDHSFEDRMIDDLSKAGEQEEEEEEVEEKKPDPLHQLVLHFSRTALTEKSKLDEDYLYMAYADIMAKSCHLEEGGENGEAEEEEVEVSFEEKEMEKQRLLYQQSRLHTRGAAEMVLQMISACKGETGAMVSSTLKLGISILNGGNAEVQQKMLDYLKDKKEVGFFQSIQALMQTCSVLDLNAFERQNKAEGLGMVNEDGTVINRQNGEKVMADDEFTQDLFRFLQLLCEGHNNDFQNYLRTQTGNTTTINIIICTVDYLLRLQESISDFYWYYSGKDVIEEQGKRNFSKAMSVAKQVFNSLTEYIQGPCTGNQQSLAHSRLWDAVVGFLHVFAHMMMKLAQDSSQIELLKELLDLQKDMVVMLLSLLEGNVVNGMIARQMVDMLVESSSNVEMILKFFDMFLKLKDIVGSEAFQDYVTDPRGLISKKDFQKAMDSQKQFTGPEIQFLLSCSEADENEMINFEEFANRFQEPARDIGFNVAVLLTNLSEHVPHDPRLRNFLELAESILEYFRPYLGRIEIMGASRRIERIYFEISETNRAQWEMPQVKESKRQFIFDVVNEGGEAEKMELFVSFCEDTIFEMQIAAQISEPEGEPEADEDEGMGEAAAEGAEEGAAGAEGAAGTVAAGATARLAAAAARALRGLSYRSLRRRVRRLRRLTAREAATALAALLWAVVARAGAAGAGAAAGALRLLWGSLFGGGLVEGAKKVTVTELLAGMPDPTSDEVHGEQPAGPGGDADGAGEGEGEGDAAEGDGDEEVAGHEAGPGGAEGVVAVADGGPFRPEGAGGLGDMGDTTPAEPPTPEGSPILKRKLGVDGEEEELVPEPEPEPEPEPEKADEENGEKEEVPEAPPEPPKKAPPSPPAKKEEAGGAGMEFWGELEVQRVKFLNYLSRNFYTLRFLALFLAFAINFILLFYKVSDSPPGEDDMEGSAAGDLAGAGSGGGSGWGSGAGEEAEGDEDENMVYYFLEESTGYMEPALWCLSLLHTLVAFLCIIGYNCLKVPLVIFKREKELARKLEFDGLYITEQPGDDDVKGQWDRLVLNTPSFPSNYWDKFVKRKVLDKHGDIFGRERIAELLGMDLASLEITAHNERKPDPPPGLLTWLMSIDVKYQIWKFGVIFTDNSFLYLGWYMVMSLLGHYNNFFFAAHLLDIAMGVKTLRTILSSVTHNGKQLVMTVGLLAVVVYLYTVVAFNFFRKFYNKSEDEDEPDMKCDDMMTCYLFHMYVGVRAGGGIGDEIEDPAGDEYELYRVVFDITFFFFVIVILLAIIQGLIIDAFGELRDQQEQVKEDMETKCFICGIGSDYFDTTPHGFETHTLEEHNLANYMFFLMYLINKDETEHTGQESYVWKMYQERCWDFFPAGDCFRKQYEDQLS

Tests used:
[1] = target: T1, scrambled Njun peptide, biotinylated; assay: pull-down; NeutrAvidin–agarose affinity chromatography: biotinylated Njun or scrambled Njun on the agarose, recombinant RyR or RyR1 fragments (isolated from HEK293) incubated overnight at 4°C in PBS plus 0.1% SDS; RyR detected with 34C or anti-GFP antibody; both purified
T1 sequence (peptide, biotin on the N-terminus (peptides for affinity chromatography)): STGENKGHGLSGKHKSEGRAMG

[2] = target: T2, Njun peptide, N-terminal cytoplasmic domain of junctin (residues 1–22), biotinylated; assay: as above
T2 sequence (peptide, biotin on the N-terminus (peptides for affinity chromatography)): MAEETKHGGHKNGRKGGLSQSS

binding [1] | binding [2] | Substance
no binding | – | GFL (I), full-length recombinant rabbit RyR1, 5′ EGFP tagged (from UniProt P11716 1-5037)
no binding | no binding | RyR1 construct XII, amino acids 4254–4535 (from UniProt P11716 4254-4535) (domain or fragment)
no binding | – | RyR1 construct XIV, amino acids 1079–2156 (from UniProt P11716 1079-2156) (domain or fragment)
